The target of assay [1] is T1, Atg32-3×HA (S. cerevisiae) (UniProt P40458).
T1 sequence: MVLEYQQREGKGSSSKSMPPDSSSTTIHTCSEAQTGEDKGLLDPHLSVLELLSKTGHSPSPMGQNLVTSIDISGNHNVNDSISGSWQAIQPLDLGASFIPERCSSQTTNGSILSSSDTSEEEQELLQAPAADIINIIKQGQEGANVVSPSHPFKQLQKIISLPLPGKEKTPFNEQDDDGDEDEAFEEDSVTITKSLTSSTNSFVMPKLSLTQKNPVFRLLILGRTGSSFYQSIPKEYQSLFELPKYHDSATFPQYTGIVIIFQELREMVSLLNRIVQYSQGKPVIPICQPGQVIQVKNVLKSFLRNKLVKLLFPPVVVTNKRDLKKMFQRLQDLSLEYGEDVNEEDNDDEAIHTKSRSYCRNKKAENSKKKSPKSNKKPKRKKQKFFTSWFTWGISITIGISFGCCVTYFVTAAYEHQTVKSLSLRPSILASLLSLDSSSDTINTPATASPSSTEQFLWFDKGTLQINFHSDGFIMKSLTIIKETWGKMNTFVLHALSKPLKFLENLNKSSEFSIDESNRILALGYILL
Description: co-IP.

Chains of the proteins cited; added tags and fusions are not shown. Lines headed by an entry give the natural chain unless they say otherwise; changes in a name come on top. Residues count along the entry.
UniProt P0CG63, 1-76: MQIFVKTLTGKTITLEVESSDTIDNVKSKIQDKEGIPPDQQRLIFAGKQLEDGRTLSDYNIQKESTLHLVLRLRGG

In assay [2] the target is T1, Atg32-3×HA (S. cerevisiae). Description: co-IP. The source holds these as a separate data set.
Assay [3] addresses T1, Atg32-3×HA (S. cerevisiae). Description: co-IP + cross-linking.

These are yes or no findings as the source states them, for the method shown. In cells and extracts the contact can be indirect. Some entries that bind do so weakly or less than the wild type. Tags and fused reporters may be left off the sequences shown.

For the molecule ubiquitin (from UniProt P0CG63 1-76), the binding result in assay [1] is “binds”.

B1: Get1-GFP (protein, UniProt P53192 1-235)
chain: MHWAAAVAIFFIVVTKFLQYTNKYHEKWISKFAPGNELSKKYLAKVKERHELKEFNNSISAQDNYAKWTKNNRKLDSLDKEINNLKDEIQSENKAFQAHLHKLRLLALTVPFFVFKIMYGKTPVYKLSSSTSTLFPTFVSGVWSQGWLYVLLHPLRTISQKWHIMEGKFGASKFDDMALQSVSLGIWVWALMNVINGVEFIVKQLFLTPKMEAPASVETQEEKALDAVDDAIILD
Take B1: in assay [2], the binding entry was “binds”.

B2: Doa10-9×Myc (enzyme, UniProt P40318 1-1319)
chain: MDVDSDVNVSRLRDELHKVANEETDTATFNDDAPSGATCRICRGEATEDNPLFHPCKCRGSIKYMHESCLLEWVASKNIDISKPGADVKCDICHYPIQFKTIYAENMPEKIPFSLLLSKSILTFFEKARLALTIGLAAVLYIIGVPLVWNMFGKLYTMMLDGSSPYPGDFLKSLIYGYDQSATPELTTRAIFYQLLQNHSFTSLQFIMIVILHIALYFQYDMIVREDVFSKMVFHKIGPRLSPKDLKSRLKERFPMMDDRMVEYLAREMRAHDENRQEQGHDRLNMPAAAADNNNNVINPRNDNVPPQDPNDHRNFENLRHVDELDHDEATEEHENNDSDNSLPSGDDSSRILPGSSSDNEEDEEAEGQQQQQQPEEEADYRDHIEPNPIDMWANRRAQNEFDDLIAAQQNAINRPNAPVFIPPPAQNRAGNVDQDEQDFGAAVGVPPAQANPDDQGQGPLVINLKLKLLNVIAYFIIAVVFTAIYLAISYLFPTFIGFGLLKIYFGIFKVILRGLCHLYYLSGAHIAYNGLTKLVPKVDVAMSWISDHLIHDIIYLYNGYTENTMKHSIFIRALPALTTYLTSVSIVCASSNLVSRGYGRENGMSNPTRRLIFQILFALKCTFKVFTLFFIELAGFPILAGVMLDFSLFCPILASNSRMLWVPSICAIWPPFSLFVYWTIGTLYMYWFAKYIGMIRKNIIRPGVLFFIRSPEDPNIKILHDSLIHPMSIQLSRLCLSMFIYAIFIVLGFGFHTRIFFPFMLKSNLLSVPEAYKPTSIISWKFNTILLTLYFTKRILESSSYVKPLLERYWKTIFKLCSRKLRLSSFILGKDTPTERGHIVYRNLFYKYIAAKNAEWSNQELFTKPKTLEQAEELFGQVRDVHAYFVPDGVLMRVPSSDIVSRNYVQTMFVPVTKDDKLLKPLDLERIKERNKRAAGEFGYLDEQNTEYDQYYIVYVPPDFRLRYMTLLGLVWLFASILMLGVTFISQALINFVCSFGFLPVVKLLLGERNKVYVAWKELSDISYSYLNIYYVCVGSVCLSKIAKDILHFTEGQNTLDEHAVDENEVEEVEHDIPERDINNAPVNNINNVEEGQGIFMAIFNSIFDSMLVKYNLMVFIAIMIAVIRTMVSWVVLTDGILACYNYLTIRVFGNSSYTIGNSKWFKYDESLLFVVWIISSMVNFGTGYKSLKLFFRNRNTSKLNFLKTMALELFKQGFLHMVIYVLPIIILSLVFLRDVSTKQIIDISHGSRSFTLSLNESFPTWTRMQDIYFGLLIALESFTFFFQATVLFIQWFKSTVQNVKDEVYTKGRALENLPDES
Regarding B2, the binding entry in assay [3] is reported as “binds”.

B3: Doa10^C39S-9×Myc (enzyme, UniProt P40318 1-1319)
chain: MDVDSDVNVSRLRDELHKVANEETDTATFNDDAPSGATSRICRGEATEDNPLFHPCKCRGSIKYMHESCLLEWVASKNIDISKPGADVKCDICHYPIQFKTIYAENMPEKIPFSLLLSKSILTFFEKARLALTIGLAAVLYIIGVPLVWNMFGKLYTMMLDGSSPYPGDFLKSLIYGYDQSATPELTTRAIFYQLLQNHSFTSLQFIMIVILHIALYFQYDMIVREDVFSKMVFHKIGPRLSPKDLKSRLKERFPMMDDRMVEYLAREMRAHDENRQEQGHDRLNMPAAAADNNNNVINPRNDNVPPQDPNDHRNFENLRHVDELDHDEATEEHENNDSDNSLPSGDDSSRILPGSSSDNEEDEEAEGQQQQQQPEEEADYRDHIEPNPIDMWANRRAQNEFDDLIAAQQNAINRPNAPVFIPPPAQNRAGNVDQDEQDFGAAVGVPPAQANPDDQGQGPLVINLKLKLLNVIAYFIIAVVFTAIYLAISYLFPTFIGFGLLKIYFGIFKVILRGLCHLYYLSGAHIAYNGLTKLVPKVDVAMSWISDHLIHDIIYLYNGYTENTMKHSIFIRALPALTTYLTSVSIVCASSNLVSRGYGRENGMSNPTRRLIFQILFALKCTFKVFTLFFIELAGFPILAGVMLDFSLFCPILASNSRMLWVPSICAIWPPFSLFVYWTIGTLYMYWFAKYIGMIRKNIIRPGVLFFIRSPEDPNIKILHDSLIHPMSIQLSRLCLSMFIYAIFIVLGFGFHTRIFFPFMLKSNLLSVPEAYKPTSIISWKFNTILLTLYFTKRILESSSYVKPLLERYWKTIFKLCSRKLRLSSFILGKDTPTERGHIVYRNLFYKYIAAKNAEWSNQELFTKPKTLEQAEELFGQVRDVHAYFVPDGVLMRVPSSDIVSRNYVQTMFVPVTKDDKLLKPLDLERIKERNKRAAGEFGYLDEQNTEYDQYYIVYVPPDFRLRYMTLLGLVWLFASILMLGVTFISQALINFVCSFGFLPVVKLLLGERNKVYVAWKELSDISYSYLNIYYVCVGSVCLSKIAKDILHFTEGQNTLDEHAVDENEVEEVEHDIPERDINNAPVNNINNVEEGQGIFMAIFNSIFDSMLVKYNLMVFIAIMIAVIRTMVSWVVLTDGILACYNYLTIRVFGNSSYTIGNSKWFKYDESLLFVVWIISSMVNFGTGYKSLKLFFRNRNTSKLNFLKTMALELFKQGFLHMVIYVLPIIILSLVFLRDVSTKQIIDISHGSRSFTLSLNESFPTWTRMQDIYFGLLIALESFTFFFQATVLFIQWFKSTVQNVKDEVYTKGRALENLPDES
On to B3, for which the binding entry in assay [2] is on record as “binds”.

For the origin of these results see paper doi:10.1101/2024.04.08.588568.
